This test concerns the target T1, METTL7B-HaloTag fusion protein (human) (UniProt Q6UX53).
T1 sequence: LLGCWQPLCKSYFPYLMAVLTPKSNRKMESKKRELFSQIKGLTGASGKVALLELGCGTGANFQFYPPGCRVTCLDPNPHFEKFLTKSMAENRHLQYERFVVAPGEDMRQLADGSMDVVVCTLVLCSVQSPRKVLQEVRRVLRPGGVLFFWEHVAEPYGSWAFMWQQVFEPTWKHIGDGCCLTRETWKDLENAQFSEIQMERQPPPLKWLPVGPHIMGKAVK
Briefly: pull-down.

Sequences of proteins named here, by UniProt entry; tags and fusion partners are left off. Residues count along the entry.
UniProt P05067, residues 18-770: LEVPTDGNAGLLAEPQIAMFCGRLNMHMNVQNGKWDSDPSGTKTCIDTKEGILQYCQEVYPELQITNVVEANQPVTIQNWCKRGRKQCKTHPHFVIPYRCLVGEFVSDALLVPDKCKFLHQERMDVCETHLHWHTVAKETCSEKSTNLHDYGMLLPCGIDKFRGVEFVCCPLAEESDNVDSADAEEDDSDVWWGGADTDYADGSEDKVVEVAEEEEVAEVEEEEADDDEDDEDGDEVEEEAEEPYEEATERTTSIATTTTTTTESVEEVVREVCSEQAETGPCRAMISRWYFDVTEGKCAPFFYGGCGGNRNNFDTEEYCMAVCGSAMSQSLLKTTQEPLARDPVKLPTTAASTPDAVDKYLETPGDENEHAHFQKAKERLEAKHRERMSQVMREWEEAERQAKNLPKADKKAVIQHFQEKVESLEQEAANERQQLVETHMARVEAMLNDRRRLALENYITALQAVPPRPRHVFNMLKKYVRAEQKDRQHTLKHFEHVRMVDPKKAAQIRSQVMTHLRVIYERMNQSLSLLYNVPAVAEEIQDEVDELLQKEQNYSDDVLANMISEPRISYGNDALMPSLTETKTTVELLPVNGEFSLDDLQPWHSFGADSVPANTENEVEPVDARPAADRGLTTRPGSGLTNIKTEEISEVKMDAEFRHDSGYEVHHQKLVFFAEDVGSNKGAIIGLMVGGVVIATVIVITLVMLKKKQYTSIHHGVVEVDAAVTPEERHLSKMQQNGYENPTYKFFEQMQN
UniProt Q07954, residues 20-4544: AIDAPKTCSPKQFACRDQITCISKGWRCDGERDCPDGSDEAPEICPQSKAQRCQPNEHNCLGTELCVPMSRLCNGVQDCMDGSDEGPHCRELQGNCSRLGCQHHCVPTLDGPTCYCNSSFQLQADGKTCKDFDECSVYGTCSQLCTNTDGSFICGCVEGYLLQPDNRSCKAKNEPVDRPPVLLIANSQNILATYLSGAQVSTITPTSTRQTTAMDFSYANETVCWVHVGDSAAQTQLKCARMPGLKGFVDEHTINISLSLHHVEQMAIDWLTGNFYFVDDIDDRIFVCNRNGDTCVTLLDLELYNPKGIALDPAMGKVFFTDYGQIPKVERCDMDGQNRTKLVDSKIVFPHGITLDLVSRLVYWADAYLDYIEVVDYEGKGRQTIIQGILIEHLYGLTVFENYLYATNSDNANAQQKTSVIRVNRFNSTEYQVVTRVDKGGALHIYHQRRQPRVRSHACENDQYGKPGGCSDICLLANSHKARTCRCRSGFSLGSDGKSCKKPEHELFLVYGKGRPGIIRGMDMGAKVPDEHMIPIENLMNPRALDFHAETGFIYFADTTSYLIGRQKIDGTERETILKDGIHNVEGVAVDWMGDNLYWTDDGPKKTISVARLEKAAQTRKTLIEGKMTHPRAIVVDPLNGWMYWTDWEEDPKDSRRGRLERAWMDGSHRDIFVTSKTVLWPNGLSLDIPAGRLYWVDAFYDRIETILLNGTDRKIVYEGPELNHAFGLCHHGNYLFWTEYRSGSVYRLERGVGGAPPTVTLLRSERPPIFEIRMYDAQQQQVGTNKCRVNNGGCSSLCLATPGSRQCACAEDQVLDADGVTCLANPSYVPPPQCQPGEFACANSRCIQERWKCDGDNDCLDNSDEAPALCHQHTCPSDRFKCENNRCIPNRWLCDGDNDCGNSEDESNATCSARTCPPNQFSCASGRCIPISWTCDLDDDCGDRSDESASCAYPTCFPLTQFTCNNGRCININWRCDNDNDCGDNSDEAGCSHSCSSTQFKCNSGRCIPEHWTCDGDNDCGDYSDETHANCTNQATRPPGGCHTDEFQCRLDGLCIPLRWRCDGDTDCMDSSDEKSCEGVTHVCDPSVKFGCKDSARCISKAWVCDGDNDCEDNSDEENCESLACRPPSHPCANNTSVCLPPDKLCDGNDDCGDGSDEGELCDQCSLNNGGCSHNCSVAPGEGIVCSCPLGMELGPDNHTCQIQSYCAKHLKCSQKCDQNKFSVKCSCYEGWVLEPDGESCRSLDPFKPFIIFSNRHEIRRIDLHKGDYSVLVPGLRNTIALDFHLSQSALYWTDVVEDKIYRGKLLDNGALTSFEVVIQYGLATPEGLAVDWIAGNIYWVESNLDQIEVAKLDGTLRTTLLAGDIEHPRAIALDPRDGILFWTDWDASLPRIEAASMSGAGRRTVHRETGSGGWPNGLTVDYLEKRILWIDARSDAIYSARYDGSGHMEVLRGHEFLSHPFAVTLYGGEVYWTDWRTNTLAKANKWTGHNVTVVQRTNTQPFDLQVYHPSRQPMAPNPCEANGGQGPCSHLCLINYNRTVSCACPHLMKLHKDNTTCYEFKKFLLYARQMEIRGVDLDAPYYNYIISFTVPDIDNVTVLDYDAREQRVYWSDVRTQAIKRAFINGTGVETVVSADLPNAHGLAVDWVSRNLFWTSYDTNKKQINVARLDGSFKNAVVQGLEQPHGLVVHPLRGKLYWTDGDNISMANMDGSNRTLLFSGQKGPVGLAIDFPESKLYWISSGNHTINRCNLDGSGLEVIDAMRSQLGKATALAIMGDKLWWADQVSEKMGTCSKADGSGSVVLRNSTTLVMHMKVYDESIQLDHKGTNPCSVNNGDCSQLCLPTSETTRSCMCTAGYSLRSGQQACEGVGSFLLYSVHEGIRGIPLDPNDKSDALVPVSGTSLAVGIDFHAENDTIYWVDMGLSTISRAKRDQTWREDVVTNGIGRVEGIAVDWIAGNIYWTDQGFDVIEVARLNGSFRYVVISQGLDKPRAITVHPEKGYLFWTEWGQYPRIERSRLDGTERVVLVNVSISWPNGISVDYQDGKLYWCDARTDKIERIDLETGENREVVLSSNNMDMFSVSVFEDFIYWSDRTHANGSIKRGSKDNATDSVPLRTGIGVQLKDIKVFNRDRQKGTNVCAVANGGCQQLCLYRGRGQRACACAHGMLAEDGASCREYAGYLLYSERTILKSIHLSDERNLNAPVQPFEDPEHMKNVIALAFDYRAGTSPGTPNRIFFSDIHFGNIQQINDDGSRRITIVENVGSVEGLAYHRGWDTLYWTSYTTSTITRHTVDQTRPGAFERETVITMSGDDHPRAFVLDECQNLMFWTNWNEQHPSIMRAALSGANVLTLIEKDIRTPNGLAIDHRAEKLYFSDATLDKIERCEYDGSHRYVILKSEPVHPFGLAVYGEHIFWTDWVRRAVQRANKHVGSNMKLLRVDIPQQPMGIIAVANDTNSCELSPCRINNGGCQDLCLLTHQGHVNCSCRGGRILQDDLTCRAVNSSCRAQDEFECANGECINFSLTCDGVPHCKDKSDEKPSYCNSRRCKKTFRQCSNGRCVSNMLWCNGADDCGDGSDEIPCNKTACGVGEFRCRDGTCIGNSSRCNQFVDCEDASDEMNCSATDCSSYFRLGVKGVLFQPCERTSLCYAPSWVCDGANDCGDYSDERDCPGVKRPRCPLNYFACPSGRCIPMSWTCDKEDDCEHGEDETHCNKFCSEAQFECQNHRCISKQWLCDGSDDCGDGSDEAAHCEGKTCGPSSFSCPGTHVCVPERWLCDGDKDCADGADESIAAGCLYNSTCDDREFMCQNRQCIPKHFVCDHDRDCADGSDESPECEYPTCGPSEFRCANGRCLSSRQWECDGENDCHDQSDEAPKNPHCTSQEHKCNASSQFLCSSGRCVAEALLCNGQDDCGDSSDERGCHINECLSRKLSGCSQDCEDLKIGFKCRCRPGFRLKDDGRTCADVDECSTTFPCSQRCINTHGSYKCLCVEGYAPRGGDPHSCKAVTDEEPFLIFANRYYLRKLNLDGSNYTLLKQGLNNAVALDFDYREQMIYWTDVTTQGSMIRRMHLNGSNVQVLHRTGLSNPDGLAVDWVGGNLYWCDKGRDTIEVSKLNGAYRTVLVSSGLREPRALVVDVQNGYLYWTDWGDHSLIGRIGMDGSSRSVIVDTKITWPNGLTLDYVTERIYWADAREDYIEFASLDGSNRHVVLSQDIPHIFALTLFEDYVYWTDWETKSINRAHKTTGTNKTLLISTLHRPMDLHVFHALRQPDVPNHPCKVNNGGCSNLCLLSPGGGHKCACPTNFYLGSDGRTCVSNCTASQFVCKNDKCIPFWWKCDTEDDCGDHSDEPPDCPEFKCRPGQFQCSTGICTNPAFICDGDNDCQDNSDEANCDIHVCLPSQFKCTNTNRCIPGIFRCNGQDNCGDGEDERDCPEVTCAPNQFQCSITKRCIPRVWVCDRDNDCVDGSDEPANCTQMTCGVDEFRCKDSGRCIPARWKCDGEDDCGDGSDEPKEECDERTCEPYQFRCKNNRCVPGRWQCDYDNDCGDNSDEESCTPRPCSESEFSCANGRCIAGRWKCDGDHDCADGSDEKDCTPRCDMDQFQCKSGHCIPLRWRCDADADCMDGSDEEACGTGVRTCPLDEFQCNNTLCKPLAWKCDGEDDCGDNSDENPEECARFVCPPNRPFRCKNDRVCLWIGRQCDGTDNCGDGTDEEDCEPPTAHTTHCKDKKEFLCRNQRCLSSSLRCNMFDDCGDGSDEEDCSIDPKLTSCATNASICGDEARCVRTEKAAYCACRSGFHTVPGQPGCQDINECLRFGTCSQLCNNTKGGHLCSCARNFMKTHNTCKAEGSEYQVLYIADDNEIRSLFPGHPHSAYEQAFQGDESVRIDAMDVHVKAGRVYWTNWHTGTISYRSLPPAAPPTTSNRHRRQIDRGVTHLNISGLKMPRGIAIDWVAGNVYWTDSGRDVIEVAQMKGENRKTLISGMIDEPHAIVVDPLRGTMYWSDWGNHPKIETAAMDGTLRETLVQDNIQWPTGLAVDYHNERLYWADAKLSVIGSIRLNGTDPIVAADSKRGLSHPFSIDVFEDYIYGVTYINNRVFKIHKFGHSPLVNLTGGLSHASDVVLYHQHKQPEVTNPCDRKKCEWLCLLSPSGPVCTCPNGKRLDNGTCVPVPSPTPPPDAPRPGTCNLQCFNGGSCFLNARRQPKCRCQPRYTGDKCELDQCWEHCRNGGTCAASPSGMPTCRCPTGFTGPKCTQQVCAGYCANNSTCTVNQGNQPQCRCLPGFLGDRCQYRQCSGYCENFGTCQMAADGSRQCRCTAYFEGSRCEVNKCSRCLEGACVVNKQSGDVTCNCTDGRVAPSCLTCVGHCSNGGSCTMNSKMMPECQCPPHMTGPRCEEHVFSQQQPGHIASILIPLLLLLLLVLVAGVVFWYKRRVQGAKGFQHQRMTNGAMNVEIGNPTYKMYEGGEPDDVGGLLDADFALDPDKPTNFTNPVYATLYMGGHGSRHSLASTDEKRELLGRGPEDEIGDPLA

The source of these data is paper doi:10.1101/2019.12.31.889139.

These are yes or no findings as the source states them, for the method shown. In cells and extracts the contact can be indirect. Some binding calls cover weakened binding; strength is not graded here. Where a sequence is shown, tags or fusion partners need not be part of it.

With “amyloid precursor protein (from UniProt P05067 18-770)”, the binding result is given as “binds”. As for LRP1 (from UniProt Q07954), the binding entry is “binds”.
